# Taken from: PubChem BioAssay AID743121 (NCATS, 2013)
# Assay: 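Partners whose loss is lethal together with topoisomerase I blockade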 (primary screen)
# System: MDA-MB-231 cells, a human breast cancer line
# Reagents: single siRNA against human genes, 20 nM siRNA (0.8 pmol per well)
# Timing: 120 h (drug added 48 h after transfection, read 72 h later)
# Challenge: camptothecin 20 nM (about EC30) for 72 h; vehicle 0.1% DMSO in parallel plates
# Read-out: 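Cell viability by ATP luminescence (CellTiter-Glo) as % of non-targeting siRNA wells, and the log2 ratio of viability without drug over viability with camptothecin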
# Scale: log2 vehicle/camptothecin viability: higher = stronger sensitisation to camptothecin
# Active means: 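Each gene scored by redundant siRNA activity (RSA) over its individual siRNA ratios; a gene is called active at p < 0.001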
# Here is one part, drawn at random, of about 26,000 reagents tested. Over the whole deposit, 167 (0.63%) were called active. 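Calls are per gene from RSA p-values that are not deposited; an individual active-marked siRNA can sensitise only weakly.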 Reagents against one gene are numbered here. Further read-outs or replicates are left out here. Reagent sequences are not shown.
target,reagent,log2 vehicle/camptothecin viability,activity call
KDM2A,1,-0.183,inactive
KDM2A,2,-0.111,inactive
KDM2A,3,0.0412,inactive
KDM2A,4,0.196,inactive
P2RX3,1,-0.111,inactive
P2RX3,2,0.0497,inactive
P2RX3,3,-0.0166,inactive
STX4,1,-0.344,inactive
STX4,2,0.0623,inactive
STX4,3,-0.0815,inactive
STX4,4,0.798,inactive
CCT4,1,-0.406,inactive
CCT4,2,-0.294,inactive
CCT4,3,-0.232,inactive
CCT4,4,-0.523,inactive
DGUOK,1,-0.313,inactive
DGUOK,2,-0.26,inactive
DGUOK,3,0.674,inactive
DGUOK,4,0.137,inactive
TUBA1B,1,-0.5,inactive
TUBA1B,2,-0.249,inactive
TUBA1B,3,-0.0561,inactive
TUBA1B,4,-0.507,inactive
RGR,1,-0.318,inactive
RGR,2,-0.211,inactive
RGR,3,-0.0879,inactive
RGR,4,-0.355,inactive
TMEM50B,1,-0.141,inactive
TMEM50B,2,0.43,inactive
TMEM50B,3,-0.341,inactive
TREM2,1,-0.226,inactive
TREM2,2,-0.566,inactive
TREM2,3,0.779,inactive
TREM2,4,0.0239,inactive
CLEC11A,1,-0.578,inactive
CLEC11A,2,-0.265,inactive
CLEC11A,3,-0.16,inactive
CLEC11A,4,-0.0828,inactive
OGDH,1,-0.00945,inactive
OGDH,2,-0.551,inactive
OGDH,3,0.152,inactive

In a second layout: 4 of the entries above.
target	reagent	log2 vehicle/camptothecin viability	activity call
KDM2A	2	-0.111	inactive
KDM2A	3	0.0412	inactive
KDM2A	4	0.196	inactive
P2RX3	1	-0.111	inactive

The results go on.
target,reagent,log2 vehicle/camptothecin viability,activity call
CRB1,1,-0.367,inactive
CRB1,2,-0.258,inactive
CRB1,3,-0.219,inactive
CRB1,4,0.112,inactive
NR1I2,1,0.35,inactive
NR1I2,2,0.325,inactive
NR1I2,3,-0.652,inactive
NR1I2,4,-0.0583,inactive
BBS2,1,0.538,inactive
BBS2,2,0.245,inactive
BBS2,3,0.292,inactive
BBS2,4,-0.0853,inactive
RIPK4,1,-0.0904,inactive
RIPK4,2,-0.128,inactive
RIPK4,3,-0.0454,inactive
RIPK4,4,-0.0754,inactive
SPSB4,1,0.154,inactive
SPSB4,2,-0.736,inactive
SPSB4,3,-0.426,inactive
SPSB4,4,-0.172,inactive
UBE4A,1,-0.324,inactive
UBE4A,2,-0.696,inactive
UBE4A,3,-0.0767,inactive
UBE4A,4,-0.0373,inactive
ABCA4,1,-0.187,inactive
ABCA4,2,0.318,inactive
ABCA4,3,-0.00172,inactive
ABCA4,4,0.0154,inactive
